Measurements reported in PubChem BioAssay AID504744 (Drosophila RNAi Screening Center, 2011).

Aim: 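Find genes whose loss alters insulin-driven dAkt phosphorylation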 (primary screen)
Cells: Drosophila Kc167 cells
Knock-down reagent: long dsRNA against Drosophila genes, 250 ng dsRNA per well of a 384-well plate
Timing: 3 days of knock-down, then overnight serum-free starvation before stimulation
Challenge: bovine insulin at 387 nM for 10 minutes after 12 h without serum
Detection: 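Per-well phospho-dAkt level from an in-cell fluorescent antibody stain, divided by a DNA-dye signal; log2 residuals turned into z-scores that take cell number into account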
Rule for the call: 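Hit in the insulin screen when the two-replicate mean z-score is more extreme than plus or minus 2.5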
The deposit covers about 23,000 reagents; shown is an unselected part of those that have a named target and a result. In the full data, 98 (0.43%) got an active call. 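Only hit calls are given; the phospho-dAkt signals, z-scores and hit direction were not deposited.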 The numbers tell different reagents against one gene apart. Names joined by + are all predicted targets of the reagent. Reagent sequences are not shown.

gene | dsRNA no. | Call
St3 (Sulfotransferase 3) | 1 | inactive
bwa (brain washing) | 1 | inactive
bwa (brain washing) | 2 | inactive
CG13369 | 1 | inactive
Tbcc (Tubulin-binding cofactor C) | 1 | inactive
Lhr (Lethal hybrid rescue) | 1 | inactive
EloC (Elongin C) | 1 | inactive
Gr22b (Gustatory receptor 22b) | 1 | inactive
Andorra | 1 | inactive
Or85b (Odorant receptor 85b) | 1 | inactive
Cox17 (Cytochrome c oxidase copper chaperone COX17) | 1 | inactive
CG4278 | 1 | inactive
ZnT33D (Zinc transporter 33D) | 1 | inactive
CG16721 | 1 | inactive
Mst85C | 1 | inactive
Dup99B (Ductus ejaculatorius peptide 99B) | 1 | inactive
CG7080 | 1 | inactive
CG7791 | 1 | inactive
Kmn1 (kinetochore Mis12-Ndc80 network component 1) | 1 | inactive
GstT1 (Glutathione S transferase T1) | 1 | inactive
Vps35 (Vacuolar protein sorting 35) | 1 | inactive
CG7218 | 1 | inactive
Cpr64Ad (Cuticular protein 64Ad) | 1 | inactive
nab | 1 | inactive
nab | 2 | inactive
Wnk (Wnk kinase) | 1 | inactive
Nepl7 (Neprilysin-like 7) | 1 | inactive
CG1316 | 1 | inactive
Rox8 | 1 | inactive
hh (hedgehog) | 1 | inactive
CG2528 | 1 | inactive
CG10274 | 1 | inactive
Prosbeta4 (Proteasome beta4 subunit) | 1 | inactive
Ref1 (RNA and export factor binding protein 1) | 1 | inactive
Ref1 (RNA and export factor binding protein 1) | 2 | inactive
SIFaR (SIFamide receptor) | 1 | inactive
SIFaR (SIFamide receptor) | 2 | inactive
yip7 (yippee interacting protein 7) | 1 | inactive
CG31109 | 1 | inactive
eIF3i (eukaryotic translation initiation factor 3 subunit i) | 1 | inactive
Ppn (Papilin) | 1 | inactive
alpha-Man-IIa (alpha-Mannosidase class II a) | 1 | inactive
anne (anne boleyn) | 1 | inactive
eEF1alpha1 (eukaryotic translation elongation factor 1 alpha 1) | 1 | inactive
Trmt6 (tRNA methyltransferase 6 non-catalytic subunit) | 1 | inactive
CG3176 + CR18166 + CG32817 | 1 | inactive
CG3176 + CR18166 + CG32817 | 2 | inactive
CG3176 + CR18166 + CG32817 | 3 | inactive
r + CG13012 | 1 | inactive
JMJD7 (Jumonji domain containing 7) | 1 | inactive
ea (easter) | 1 | inactive
CG9263 | 1 | inactive
snoRNA:U31:54Ec + snoRNA:snR38:54Eb + snoRNA:U27:54Eb + 8 more | 1 | inactive
blanks | 1 | inactive
Or83c (Odorant receptor 83c) | 1 | inactive
Pex6 + Hao | 1 | inactive
Pex6 + Hao | 2 | inactive
CG32633 | 1 | inactive
CG4074 + CG4186 | 1 | inactive
Lam (Lamin) | 1 | inactive
Lsm12a (LSM12 homolog a) | 1 | inactive
sima (similar) | 1 | inactive
CG5151 | 1 | inactive
Inx2 (Innexin 2) | 1 | inactive

Records listed so far whose target name begins with R or r:
gene | dsRNA no. | Call
Rox8 | 1 | inactive
Ref1 (RNA and export factor binding protein 1) | 1 | inactive
Ref1 (RNA and export factor binding protein 1) | 2 | inactive
r + CG13012 | 1 | inactive
